Inconclusive means that the source gave no clear call. Such entries were picked first, then a sample of the others. Where the call is inconclusive, the potency comes from a doubtful curve fit. Calls of active or inactive are those of the source. Rule for the calls: active = hit-call score of the fitted dose curve at least 0.9, where 1 is the maximum; inconclusive = response in the unintended direction; inactive = score below 0.9.
target: rat Thyrotropin Releasing Hormone Receptor (TRH), Trhr (gene 25570) (UniProt Q01717); assay: NVS_GPCR_rTRH: NovaScreen (NVS) G Protein-Coupled Receptor Assay for rat Thyrotropin Releasing Hormone Receptor (TRH) (AID 2283329);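 note: hit means lower bound tracer signal versus DMSO baseline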
Summary of the method: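 Rat forebrain membrane prep, radioligand displacement, filter scintillation readout at 4 h. Single conc 25 uM, duplicate; actives retested as concentration series. DMSO = negative control/baseline.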

Sequences of proteins named here, by UniProt entry; tags and fusion partners are left off. A change or cut given only in a name is not applied to a line headed by its entry.
UniProt Q01717: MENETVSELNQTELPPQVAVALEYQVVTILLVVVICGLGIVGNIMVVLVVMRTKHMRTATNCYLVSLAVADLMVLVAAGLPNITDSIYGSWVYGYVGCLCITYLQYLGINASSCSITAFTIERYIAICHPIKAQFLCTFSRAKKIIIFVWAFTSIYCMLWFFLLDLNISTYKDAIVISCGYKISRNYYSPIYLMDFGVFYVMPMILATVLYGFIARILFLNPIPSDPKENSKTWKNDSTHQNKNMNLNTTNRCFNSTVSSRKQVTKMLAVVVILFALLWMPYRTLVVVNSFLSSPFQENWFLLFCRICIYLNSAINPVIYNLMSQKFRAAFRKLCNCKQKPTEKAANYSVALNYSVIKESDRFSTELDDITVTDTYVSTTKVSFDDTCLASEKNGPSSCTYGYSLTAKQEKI

Structure (SMILES)	AC50	outcome
CC(C)CC(C)CC(O)CC(C)C (centres undefined)	inconclusive: 0.352 µM	–
Cc1cccc(C)c1	inconclusive: 0.187 µM	–
CC(=O)C1=C(C)[C@@H]2C[C@@]3(C1)[C@H](C)CC[C@H]3C2(C)C	inconclusive: 0.263 µM	–
CC/C(=C\C(=N/O)C(N)=O)C(C)[N+](=O)[O-] (centres undefined)	inconclusive: 0.459 µM	–
NCCOCCOCCN	inconclusive: 25 µM	–
CC(C)OC(=O)c1ccccc1C(=O)OC(C)C	inconclusive: 16.7 µM	–
CCCOCCO	inconclusive: 0.274 µM	–
CCCCCC[C@@H](O)C/C=C\CCCCCCCC(=O)O	–	inactive
CCCCC(CC)COS(=O)(=O)O (centres undefined)	–	inactive
CCC(C)(C)C1CCC(OC)CC1 (centres undefined)	–	inactive
OCC1CCCO1 (centres undefined)	inconclusive: 25 µM	–
Fc1ccc(Br)cc1	inconclusive: 25 µM	–
O=C(O)CC(C(=O)O)S(=O)(=O)O (centres undefined)	inconclusive: 25 µM	–
CCCCCCCCCO	inconclusive: 44.9 µM	–
CCOC(=O)c1ccc(C)cc1	–	inactive
CCCCCCCCCC[N+](C)(C)[O-]	inconclusive: 1.35 µM	–
OC1OC[C@@H](O)[C@H](O)[C@H]1O (some centres undefined)	inconclusive: 25 µM	–

Structure (SMILES)	AC50	outcome
O=C(O)c1cccnc1	inconclusive: 25 µM	–
CCCCCCCC/C=C\CCCCCCCC(=O)OCC(O)CO (centres undefined)	–	inactive
CCCCCCCCCCCCN1CCOCC1	inconclusive: 6.76 µM	–
CC(C)OC=O	inconclusive: 0.112 µM	–
CN1CCc2cccc3c2[C@H]1Cc1ccc(O)c(O)c1-3	inconclusive: 10 µM	–
COS(=O)(=O)O	–	inactive
CC(=O)C1C(=O)C=C(C)OC1=O (centres undefined)	inconclusive: 6.7 µM	–
CCN(CC)CCOC(=O)c1ccc(N)cc1	inconclusive: 0.214 µM	–
CCCCCCCCCCN	inconclusive: 0.175 µM	–
Oc1cccc2ccccc12	inconclusive: 25 µM	–
CCCCC(CC)COC(=O)/C=C\C(=O)OCC(CC)CCCC (centres undefined)	inconclusive: 0.00229 µM	–
CCCCOC(=O)[C@H](C)O	–	inactive
CS(=O)(=O)c1ccc([C@@H](CC2CCCC2)C(=O)Nc2cnccn2)cc1Cl	–	inactive
Cc1ccc2oc(CN(Cc3ccccc3)C(=O)Nc3c(F)cc(F)cc3F)c(-c3ccc(Cl)cc3)c2c1	inconclusive: 1.25 µM	–
O=CCc1ccccc1	–	inactive
CC(C)CCOC(=O)c1ccccc1	inconclusive: 25 µM	–
CCCCCCCCSCCO	–	inactive

Molecules shown so far that contain fluorine, in the order listed:
Structure (SMILES)	AC50	outcome
Fc1ccc(Br)cc1	inconclusive: 25 µM	–
Cc1ccc2oc(CN(Cc3ccccc3)C(=O)Nc3c(F)cc(F)cc3F)c(-c3ccc(Cl)cc3)c2c1	inconclusive: 1.25 µM	–
